Some results were stated once for a whole list of compounds, not compound by compound.
tested on: UCP1; test: UCP1 mRNA expression (Q-RT-PCR) in WT-1 brown preadipocytes; type: cell-based, murine; conditions: 200 ng/mL with insulin and T3, three days
Protocol: Total RNA was isolated with QIAzol lysis reagent (Qiagen, Valencia, Calif.) and purified by RNeasy Mini columns (Qiagen) following the manufacture's instructions. cDNA was prepared from total RNA using the Advantage RT-PCR kit (BD Biosciences, Palo Alto, Calif.) according to manufacturer's instructions. Diluted cDNA was used in a PCR reaction with SYBR Green Master Mix (Applied Biosystems, Foster City, Calif.) and primers specifically designed for detection of the gene of interest. PCR reactions were run in duplicate for each sample and quantitated in the ABI Sequence Detection System (Applied Biosystems). Data were expressed as arbitrary units after normalization to levels of expression of internal controls for each sample. Sequences of primers for specific genes are each obtained from the published literature or designed using publically available gene sequence databases. Unless otherwise indicated, gene expression data described in the examples below was obtained using QPCR.
The effect of FGF6 on differentiation of WT-1 murine brown preadipocytes was also examined. WT-1 cells can be induced to undergo brown adipocyte differentiation, characterized by lipid accumulation and expression of adipogenic and brown fat markers, as described above (Klein et al. (1999) J Biol Chem 274:34795; Tseng et al. (2005) Nat Cell Biol 7:601). WT-1 cells were treated with FGF6 in growth media (DMEM+10% FBS), a vehicle control (“control” or “C” referred to in FIGS. 3A-D), or induction media (“induction” or “I” referred to in FIGS. 3A-D) as described above for seven days. […]
UCP1 mRNA expression in brown adipocyte cells was determined at FGF6 concentrations ranging from 0 to 300 ng/ml in the absence of induction cocktail.
In order to determine the length of time necessary to induce UCP1 expression upon exposure to of cells to FGF6, an experiment was performed whereby FGF6 was administered to brown preadipocytes at a concentration of 200 ng/ml and UCP1 expression was determined. […]
FGF2, FGF6 and FGF9 were used at a dosage of 50 ng/mL, 100 ng/mL, 200 ng/mL or 300 ng/mL. […] RNA was isolated and UCP1 and PPARγ expression levels were evaluated by quantitative reverse transcription polymerase chain reaction (Q-RT-PCR) analysis after 24 hours (i.e., 1 day) (FIG. 14A), 2 days (FIG. 14B), 5 days (FIG. 14C) and 7 days (FIG. 14D) of treatment. […]
FGF2, FGF6 and FGF9 were used at a dosage of 200 ng/mL. […] The concentration of BMP7 was 3.3 nM. mRNA was isolated and UCP1 and PPARγ expression levels were evaluated by quantitative reverse transcription polymerase chain reaction (Q-RT-PCR) analysis after 24 hours (i.e., 1 day), 2 days, 5 days and 7 days of treatment (FIG. 15). […]

Molecule | expression of UCP1 mRNA relative to the control [fold]
FGF4: fibroblast growth factor 4, recombinant human, R&D Systems (protein, listed as Homo sapiens) MSGPGTAAVALLPAVLLALLAPWAGRGGAAAPTAPNGTLEAELERRWESLVALSLARLPVAAQPKEAAVQSGAGDYLLGIKRLRRLYCNVGIGFHLQALPDGRIGGAHADTRDSLLELSPVERGVVSIFGVASRFFVAMSSKGKLYGSPFFTDECTFKEILLPNNYNAYESYKYPGMFIALSKNGKTKKGNRVSPTMKVTHFLPRL | ≥ 5
FGF6: fibroblast growth factor 6; recombinant human FGF from R&D Systems, or mouse FGF6 cDNA overexpressed by lentiviral vector (protein) KRQRRLYCNVGIGFHLQVLPDGRISGTHEENPYSLLEISTVERGVVSLFGVRSALFVAMNSKGRLYATPSFQEECKFRETLLPNNYNAYESDLYQGTYIALSKYGRVKRGSKVSPIMTVTHFLPRI | ≥ 5
FGF17: fibroblast growth factor 17 (protein, listed as Homo sapiens) MGAARLLPNLTLCLQLLILCCQTQGENHPSPNFNQYVRDQGAMTDQLSRRQIREYQLYSRTSGKHVQVTGRRISATAEDGNKFAKLIVETDTFGSRVRIKGAESEKYICMNKRGKLIGKPSGKSKDCVFTEIVLENNYTAFQNARHEGWFMAFTRQGRPRQASRSRQNQREAHFIKRLYQGQLPFPNHAEKQKQFEFVGSAPTRRTKRTRRPQPLT | ≥ 5
FGF18: fibroblast growth factor 18 (protein, listed as Homo sapiens) MYSAPSACTCLCLHFLLLCFQVQVLVAEENVDFRIHVENQTRARDDVSRKQLRLYQLYSRTSGKHIQVLGRRISARGEDGDKYAQLLVETDTFGSQVRIKGKETEFYLCMNRKGKLVGKPDGTSKECVFIEKVLENNYTALMSAKYSGWYVGFTKKGRPRKGPKTRENQQDVHFMKRYPKGQPELQKPFKYTTVTKRSRRIRPTHPA | ≥ 5

Source: patent publication US20170173114A1, “METHODS AND COMPOSITIONS FOR INDUCTION OF UCP1 EXPRESSION” (Joslin Diabetes Center, Inc., priority 2014, published 2017)
